No constants are given. Whether binding was seen depends on the method and setting. Binding calls can cover weak binding; strength is not graded here. Sequences can lack the tags named with a protein.
B1: T25-PBP1ΔPASTA (S. aureus PBP1 without the PASTA domains, M1-S595) (domain or fragment, UniProt Q2FZ94 1-595)
chain: MAKQKIKIKKNKIGAVLLVGLFGLLFFILVLRISYIMITGHSNGQDLVMKANEKYLVKNAQQPERGKIYDRNGKVLAEDVERYKLVAVIDKKASANSKKPRHVVDKKETAKKLSTVINMKPEEIEKRLSQKKAFQIEFGRKGTNLTYQDKLKIEKMNLPGISLLPETERFYPNGNFASHLIGRAQKNPDTGELKGALGVEKIFDSYLSGSKGSLRYIHDIWGYIAPNTKKEKQPKRGDDVHLTIDSNIQVFVEEALDGMVERYQPKDLFAVVMDAKTGEILAYSQRPTFNPETGKDFGKKWANDLYQNTYEPGSTFKSYGLAAAIQEGAFDPDKKYKSGHRDIMGSRISDWNRVGWGEIPMSLGFTYSSNTLMMHLQDLVGADKMKSWYERFGFGKSTKGMFDGEAPGQIGWSNELQQKTSSFGQSTTVTPVQMLQAQSAFFNDGNMLKPWFVNSVENPVSKRQFYKGQKQIAGKPITKDTAEKVEKQLDLVVNSKKSHAANYRIDGYEVEGKTGTAQVAAPNGGGYVKGPNPYFVSFMGDAPKKNPKVIVYAGMSLAQKNDQEAYELGVSKAFKPIMENTLKYLNVGKSKDDTS
B2: S. aureus PBP1 (bacterial two-hybrid fusion) (protein, UniProt Q2FZ94 1-744)
chain: MAKQKIKIKKNKIGAVLLVGLFGLLFFILVLRISYIMITGHSNGQDLVMKANEKYLVKNAQQPERGKIYDRNGKVLAEDVERYKLVAVIDKKASANSKKPRHVVDKKETAKKLSTVINMKPEEIEKRLSQKKAFQIEFGRKGTNLTYQDKLKIEKMNLPGISLLPETERFYPNGNFASHLIGRAQKNPDTGELKGALGVEKIFDSYLSGSKGSLRYIHDIWGYIAPNTKKEKQPKRGDDVHLTIDSNIQVFVEEALDGMVERYQPKDLFAVVMDAKTGEILAYSQRPTFNPETGKDFGKKWANDLYQNTYEPGSTFKSYGLAAAIQEGAFDPDKKYKSGHRDIMGSRISDWNRVGWGEIPMSLGFTYSSNTLMMHLQDLVGADKMKSWYERFGFGKSTKGMFDGEAPGQIGWSNELQQKTSSFGQSTTVTPVQMLQAQSAFFNDGNMLKPWFVNSVENPVSKRQFYKGQKQIAGKPITKDTAEKVEKQLDLVVNSKKSHAANYRIDGYEVEGKTGTAQVAAPNGGGYVKGPNPYFVSFMGDAPKKNPKVIVYAGMSLAQKNDQEAYELGVSKAFKPIMENTLKYLNVGKSKDDTSNAEYSKVPDVEGQDKQKAIDNVSAKSLEPVTIGSGTQIKAQSIKAGNKVLPHSKVLLLTDGDLTMPDMSGWTKEDVIAFENLTNIKVNLKGSGFVSHQSISKGQKLTEKDKIDVEFSSENVDSNSTNNSDSNSDDKKKSDSKTDKDKSD

What was measured:
DivIC (S. aureus) = experiment: two-hybrid
PBP2 (S. aureus) = experiment: two-hybrid

Binder	binding (DivIC (S. aureus))	binding (PBP2 (S. aureus))
B1	binds	binds
B2	binds	binds
